# Laboratory results: PubChem BioAssay AID2685 (National Center for Advancing Translational Sciences (NCATS), 2010)
# In all, about 320,000 compounds went through this assay and about 2,100 (0.66%) were called active. This list was built around the results that the source calls inconclusive (neither active nor inactive); the mix of calls is not that of the screen. The call rests on the fitted dose curve; in most records, active means well fitted inhibition curve with a large enough effect in the signal ratio, with a control signal flat (not every such curve was filed as active); inconclusive means small, poorly fitted or top-dose-only effect, or effect the other way, or a change in a side signal; inactive means flat fitted curve, though single readings scatter; the % refers to the signal ratio. Potencies beside an inconclusive call are fits to weak or partial responses and may not hold up.
# Test: qHTS Assay for Lipid Storage Modulators in Drosophila S3 Cells
# Conditions: BODIPY lipid droplet fluorescence, 18-24 h, cells fed with added oleic acid; lipid storage change, negative = inhibition: at 46.1 µM (top of the series) unless noted
# Outline: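 Laser-scanning cytometry quantifies lipid droplet accumulation (500–530 nm total intensity; droplet/cell object ratio) in oleic acid-fed (400 uM added) Drosophila S3 cells treated with a concentration series. 20 uM Triacsin C defined 100% inhibition.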
# On the % scale 0 is the no-effect control and ±100 the full control effect; potency means the concentration at half of the fitted maximal effect.
SMILES,Potency,"lipid storage change, negative = inhibition"
CCCN(CC(=O)Nc1ccc(C(N)=O)cc1)CC(=O)Nc1ccc(F)c(F)c1F,"inconclusive: 29.1 µM [rising, single point]",
O=S(=O)(c1ccc(OCc2ccc(Br)cc2)cc1)N1CCOCC1,,inactive: 11.4%
COc1ccc(S(=O)(=O)Nc2c(C)ccc3nsnc23)cc1OC,"inconclusive: 0.259 µM [activator, full curve, poor fit]",
O=C(NCc1ccco1)C(c1ccncc1)N(C(=O)Cn1nnc2ccccc21)c1ccccc1F (stereo not drawn),,inconclusive: -193%
CSc1ccc(S(=O)(=O)NCC(=O)OCCOc2ccccc2)cc1[N+](=O)[O-],,inconclusive: 8.45%
COc1ccc(/C=C/C(=O)Nc2cccnc2)cc1OC,,inconclusive: -5.13%
OCC1(Cc2ccccc2F)CCCN(Cc2c(F)ccc(F)c2F)C1 (stereo not drawn),,inconclusive: -22.7%
Cn1c(=O)[nH]c(=O)c2c1nc(N(CCO)Cc1ccccc1)n2CCCc1ccccc1,,inconclusive: -20.2%
CCCn1c(SCC(=O)c2cc(C)n(-c3cc(C)on3)c2C)n[nH]c1=O,,inconclusive
C=CCn1c(C)cc(/C([O-])=C(/C(=S)Nc2ccc(OC(F)F)cc2)[n+]2ccc(N(C)C)cc2)c1C,"inconclusive: 0.355 µM [falling, full curve, poor fit]",
Nc1c(-c2ccc(Cl)cc2)cnn1-c1ccccc1,,inconclusive: 11.5%
CCOC(=O)N1CCC(NCCNC(=O)c2ccco2)CC1,,inactive: -7.46%
O=C(CN(Cc1ccccc1)C(=O)CNS(=O)(=O)c1ccc(F)cc1)NCC1CCCO1 (stereo not drawn),,inconclusive: 170%
O=C(CSc1ncn(-c2ccccc2)n1)NCc1ccccc1,"inconclusive: 2.06 µM [activator, single point]",
CCN1CCN(c2ccc(Cl)cc2NC(=O)c2ccc(-n3nc(C)cc3C)cc2)CC1,,inconclusive: -12.6%
Cc1nnc(SCCn2c(N3CCCCCC3)nc3c2c(=O)[nH]c(=O)n3C)s1,,inconclusive: 45.5%
Nc1c([N+](=O)[O-])c(=O)oc2ccccc12,,inconclusive: 11.2%
Cc1ccsc1/C=N/NC(=O)Cc1cccn1C,,inconclusive: 3.26%
CC(=O)OCc1c(F)c(F)c(-n2nc(C)cc2C)c(F)c1F,,inconclusive: -4.18%
CCOC(=O)c1c(-c2ccccc2)oc2ccc(O)cc12,,inconclusive: -87.8%
COc1ccc(N2CCN(S(=O)(=O)c3ccc(Cl)s3)CC2)cc1,,inconclusive: 15.1%
COc1ccc(C(CCNC(C)c2ccccc2)c2ccc(F)cc2)cc1 (stereo not drawn),"inconclusive: 20.6 µM [cytotoxic, single point]",
Cc1cccc(NS(=O)(=O)c2ccc(C(=O)NCC(C)(C)N3CCOCC3)cc2)c1C,,inconclusive: -31.1%
Cc1cccc(-n2nnnc2SCC(=O)Nc2cccc(S(N)(=O)=O)c2)c1,,inconclusive: 12%
COc1ccc(C(=O)NCCn2cc(SCC(=O)Nc3cc(C)on3)c3ccccc32)cc1OC,,inconclusive: 16.4%
CCN1C(N(C)CCc2cccs2)=N[C@@H](c2ccccc2)C(C(=O)OC)=C1C,,inconclusive: 7.65%

SMILES,Potency,"lipid storage change, negative = inhibition"
CCN(CC)C(=O)c1cnn(-c2ccccc2)c1NC(=O)c1cccc(F)c1,,inconclusive: 13%
CCOc1ccc(/C=C(\C#N)C(=O)Nc2cccnc2)cc1,,inconclusive: -7.88%
O=C(Nn1cnc2ccccc2c1=O)c1ccccc1Cl,,inconclusive: 14.7%
CCOC(=O)COc1ccc2c(c1)C(=O)CC(C)(c1cccnc1)O2 (stereo not drawn),,inconclusive: -30.1% [at 0.0737 µM]
O=C(Nc1ccc([N+](=O)[O-])cc1)c1cc2ccccc2nc1Cl,"inconclusive: 0.206 µM [activator, full curve, poor fit]",
O=C(NCc1ccco1)c1ccc(C(F)(F)F)cc1,,inconclusive: -20.5%
O=C(COc1ccc(Br)cc1)Nc1ccc(CN2CCOCC2)cc1,"inconclusive: 29.1 µM [falling, partial curve, poor fit]",
CCC(C(=O)OCC(=O)Nc1ccc(Cl)c(S(=O)(=O)N(C)C)c1)c1ccccc1 (stereo not drawn),,inconclusive: 7.88%
COc1cccc(NC(=O)C(OC(=O)c2cnc(C)cn2)c2ccccc2)c1 (stereo not drawn),,inconclusive: -5.65%
CC(C)C[C@H](NC(=O)[C@@H](Cc1ccccc1)n1c(=O)[nH]c2ccccc2c1=O)C(=O)N[C@@H](Cc1ccccc1)C(=O)O,,inconclusive: 14.8%
CCN(CC)c1ccc2c(cc1=O)[C@@H](NC)CCc1cc(OC)c(OC)c(OC)c1-2,,inconclusive: 1.82%
Cc1c(Cl)cccc1S(=O)(=O)N1CCC(C(=O)NNC(=O)C2CC2)CC1,,inconclusive: 5.16%
CC(C)Oc1cccc(-c2cc(C(=O)N3CCN(c4ncccn4)CC3)c3ccccc3n2)c1,,inconclusive: -23.8%
Cc1ccc(NC(=O)c2ccc3c(c2)C(=O)N(c2ccccc2C)C3=O)nc1,,inconclusive: -9.51%
CCOC(=O)c1sc(NC(=O)Nc2ccc(F)cc2)nc1C,,inconclusive: -19.5%
COC(=O)c1cc(C(=O)NCc2ccc3c(c2)OCO3)cc([N+](=O)[O-])c1,,inconclusive: -3.32%
O=C(c1ccc(=O)oc1)N1CCN(c2ccc(F)cc2)CC1,,inconclusive: -12.8%
CSc1nc(-c2ccccc2)nc(C(Cl)Cl)n1,active: 8.2 µM,
CC1CN(S(=O)(=O)c2csc(C(=O)Nc3ccccc3)c2)CC(C)O1 (stereo not drawn),"inconclusive: 13 µM [falling, partial curve, poor fit]",
CCOC(=O)c1c(C)nc2sc(C(=O)Nc3ccc(C(C)=O)cc3)c(N)c2c1-c1ccc(OC)cc1,,inconclusive: 13.6%
CC(NC(=O)C12CC3CC(CC(O)(C3)C1)C2)c1ccc(Cl)cc1Cl (stereo not drawn),"inconclusive: 29.1 µM [activator, single point]",
CCn1c(CC(=O)Nc2ccccc2)nnc1SCC(=O)Nc1nncs1,"inconclusive: 0.58 µM [activator, single point]",
Nc1nc2c(s1)CCc1ccccc1-2,,inconclusive: 15.8%
COc1cc(C(=S)N2CCCCC2)ccc1OCC(=O)Nc1ccccc1Cl,,inconclusive: 25.8%
O=C(c1cncc(Br)c1)N1CCN(c2ccc(N3CCOCC3)nn2)CC1,,inconclusive: -0.235%
COc1ccc(CCNC(=O)c2ccc(CNc3nc(=S)[nH]c4ccccc34)cc2)cc1OC,,inconclusive: -69.6%

SMILES,Potency,"lipid storage change, negative = inhibition"
CC(C[N+](C)(C)C)OC(=O)C1(c2ccccc2)CCCC1 (stereo not drawn),,inconclusive: 35.4%
CN(C)c1cccc(C(=O)OCCCC(=O)c2ccc(F)cc2)c1,"inconclusive: 0.0052 µM [activator, full curve, poor fit]",
O=C(COC(=O)Cc1ccsc1)Nc1ccc(Cl)cn1,"inconclusive: 0.58 µM [falling, single point]",
COC(=O)[C@H](Cc1ccccc1)[C@@H](C)OS(N)(=O)=O,,inconclusive: 59.9%
NS(=O)(=O)c1ccc(NC(=O)CSc2nnc(NC3CC3)s2)cc1,,inconclusive
Cc1csc(NC(=O)c2ccc(C)c([N+](=O)[O-])c2)n1,,inconclusive: 19.5%
CS(=O)(=O)N1CCc2cc(C(=O)Nc3ccccc3Cl)ccc21,,inconclusive: 1.34%
O=C(Nc1nnc(CCc2ccccc2)s1)c1cccc(F)c1,"inconclusive: 7.31 µM [activator, partial curve]",
C[C@H](NC(N)=O)C(=O)N1CCN(S(=O)(=O)c2ccc3ccccc3c2)CC1,,inconclusive: 82.1%
CCOC(=O)c1cc(NC(=O)Nc2ccccc2Cl)c(C)nc1C,,inconclusive: -39.9%
COc1cccc(Cn2cccc(NC(=O)NC3CCCCC3)c2=O)c1,,inconclusive: 189%
O=C(Cc1cccs1)Nn1c(Cc2cccs2)nc2ccccc2c1=O,"inconclusive: 0.092 µM [falling, full curve, poor fit]",
O=C(O)C1CC=CCC1C(=O)NCCc1ccccc1 (stereo not drawn),active: 23.1 µM,
O=c1[nH]c(SCc2cccc([N+](=O)[O-])c2)nc2[nH]ncc12,,inconclusive: -14% [at 9.22 µM]
Cc1nc2ccc(C(=O)O)cc2c2c1CC(CN)O2 (stereo not drawn),,inconclusive: 6.43%
CC(=O)c1ccc(S(=O)(=O)NCc2ccc(C(=O)N(C)CC(=O)Nc3cccc(F)c3)cc2)cc1,,inconclusive: 6.26%
CNC(=S)N/N=C/c1cn(CCOc2ccccc2OC)c2ccccc12,,inconclusive: 13.8%
CCc1nnc(NS(=O)(=O)c2ccc(NC(=O)CCC(=O)OC)cc2)s1,"inconclusive: 2.91 µM [falling, full curve]",
CC1CCCN(C(=O)CSc2nnc3ccccn23)C1 (stereo not drawn),"inconclusive: 0.146 µM [activator, full curve, poor fit]",
COc1cc2c(cc1OC)CN(C(=O)/C=C/c1ccc([N+](=O)[O-])cc1)CC2,,inconclusive: -38.5%
O=C(CSc1nc(=O)n(CCCN2CCOCC2)c2c1CCCC2)Nc1ccc(F)cc1F,"inconclusive: 29.1 µM [activator, single point]",
O=c1oc2ccccc2c(Nc2ccc(O)cc2)c1[N+](=O)[O-],"inconclusive: 6.51 µM [falling, single point]",
CCOC(=O)C1=C(COC(=O)/C=C/c2cccc(OC)c2)NC(=O)NC1C (stereo not drawn),,inconclusive: -42.5%
CCc1noc(C)c1C(=O)NC1CCCc2c1cnn2-c1cc(C)cc(C)c1 (stereo not drawn),,inconclusive: -95.7%
O=C(OC1CCOC1=O)c1ccc2ccccc2n1 (stereo not drawn),,inconclusive: 2.59%
Cc1nc(Cl)c(C(=O)Nc2cccc(F)c2)c(C)c1Cl,,inconclusive: 0.897%

# Molecules listed so far that contain bromine, in the order listed:
SMILES,Potency,"lipid storage change, negative = inhibition"
O=S(=O)(c1ccc(OCc2ccc(Br)cc2)cc1)N1CCOCC1,,inactive: 11.4%
O=C(COc1ccc(Br)cc1)Nc1ccc(CN2CCOCC2)cc1,"inconclusive: 29.1 µM [falling, partial curve, poor fit]",
O=C(c1cncc(Br)c1)N1CCN(c2ccc(N3CCOCC3)nn2)CC1,,inconclusive: -0.235%
